Measured data: PubChem BioAssay AID1259254 (NCATS, 2017)

- Test: 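Gene knock-downs that lead to re-replication, shown by excess G2 DNA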 (primary screen)
- Cells: human HCT116 colorectal cancer cells
- Knock-down reagent: single siRNA against human genes
- Time to read-out: 3 days
- Detection: 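Nuclei stained with Hoechst and imaged; cell-cycle phase assigned by DNA content; G2 share scaled per plate, non-targeting siRNA 0%, GMNN siRNA 100%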
- Direction: G2 robust z-score and G2 cells, % of GMNN control: higher = more G2 cells, more excess DNA replication; raw share of cells in G2: higher = larger share of cells with G2 DNA content
- Rule for the call: 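An siRNA counts as active if its G2 robust z-score lies at least 5 MADs above the screen median; here such calls match roughly 38% of GMNN control or more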
Here is a random part of about 59,000 reagents tested. In the full data, about 1,550 (2.6%) are marked active. 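G2 share is only a proxy for re-replication; each gene was hit by three separate siRNAs, and active genes were retested.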 Raw values are not corrected between plates. Reagents against one gene are numbered here. Not given: the amount of reagent.

| Gene | siRNA no. | G2 robust z-score | G2 cells, % of GMNN control | raw share of cells in G2 (%) | activity call |
| --- | --- | --- | --- | --- | --- |
| COPS9 | 1 | -0.0131 | 2.88 | 4.79 | inactive |
| COPS9 | 2 | 1.41 | 12.9 | 6.9 | inactive |
| COPS9 | 3 | 0.731 | 8.11 | 5.9 | inactive |
| SFXN3 | 1 | -0.705 | -1.99 | 3.45 | inactive |
| SFXN3 | 2 | 0.168 | 4.15 | 4.69 | inactive |
| SFXN3 | 3 | 1.53 | 13.7 | 6.57 | inactive |
| PEX7 | 1 | -0.313 | 0.762 | 5.3 | inactive |
| PEX7 | 2 | 4.09 | 31.7 | 16.7 | inactive |
| PEX7 | 3 | -0.459 | -0.261 | 3.26 | inactive |
| SLC39A14 | 1 | 0.664 | 7.64 | 7.29 | inactive |
| SLC39A14 | 2 | 0.832 | 8.82 | 7.76 | inactive |
| SLC39A14 | 3 | -0.947 | -3.7 | 2.01 | inactive |
| REPIN1 | 1 | -0.997 | -4.04 | 1.36 | inactive |
| REPIN1 | 2 | -0.993 | -4.02 | 4.09 | inactive |
| REPIN1 | 3 | -0.267 | 1.09 | 3.97 | inactive |
| PMPCB | 1 | -0.272 | 1.05 | 5.93 | inactive |
| PMPCB | 2 | -0.614 | -1.35 | 4.43 | inactive |
| PMPCB | 3 | 0.509 | 6.55 | 6.35 | inactive |
| RPAP1 | 1 | 0.145 | 3.99 | 5.91 | inactive |
| RPAP1 | 2 | 0.196 | 4.34 | 5.82 | inactive |
| RPAP1 | 3 | -0.933 | -3.6 | 2.04 | inactive |
| CLEC14A | 1 | -0.993 | -4.02 | 2.16 | inactive |
| CLEC14A | 2 | -0.995 | -4.03 | 1.61 | inactive |
| CLEC14A | 3 | 0.148 | 4.01 | 4.03 | inactive |
| SETP20 | 1 | -0.755 | -2.35 | 2.97 | inactive |
| SETP20 | 2 | -0.814 | -2.76 | 2.2 | inactive |
| SETP20 | 3 | -0.29 | 0.929 | 5.03 | inactive |
| SPNS1 | 1 | 0.896 | 9.27 | 9.29 | inactive |
| SPNS1 | 2 | 1.31 | 12.2 | 9.29 | inactive |
| SPNS1 | 3 | -0.503 | -0.574 | 3.99 | inactive |
| ROR1 | 1 | 7.82 | 58 | 24.7 | active |
| ROR1 | 2 | -1.01 | -4.17 | 4 | inactive |
| ROR1 | 3 | -1.05 | -4.44 | 2.46 | inactive |
| POGLUT1 | 1 | 0.101 | 3.68 | 5.8 | inactive |
| POGLUT1 | 2 | 1.87 | 16.1 | 12.2 | inactive |
| POGLUT1 | 3 | -0.543 | -0.85 | 2.76 | inactive |
| RTL9 | 1 | -0.454 | -0.225 | 4.26 | inactive |
| RTL9 | 2 | -0.805 | -2.69 | 3.17 | inactive |
| RTL9 | 3 | -0.918 | -3.49 | 1.92 | inactive |
| TRMT61A | 1 | 0.718 | 8.02 | 7.31 | inactive |
| TRMT61A | 2 | 0.624 | 7.36 | 5.52 | inactive |
| TRMT61A | 3 | -0.731 | -2.18 | 1.18 | inactive |
| SSBP2 | 1 | -0.381 | 0.289 | 6.29 | inactive |
| SSBP2 | 2 | -0.508 | -0.608 | 3.99 | inactive |
| SSBP2 | 3 | -0.201 | 1.55 | 4.5 | inactive |
| MRAS | 1 | 0.0412 | 3.26 | 7.68 | inactive |
| MRAS | 2 | -0.101 | 2.26 | 4.91 | inactive |
| MRAS | 3 | -1.24 | -5.78 | 1.89 | inactive |

Next part; the last 10 above are carried over.
| Gene | siRNA no. | G2 robust z-score | G2 cells, % of GMNN control | raw share of cells in G2 (%) | activity call |
| --- | --- | --- | --- | --- | --- |
| RTL9 | 3 | -0.918 | -3.49 | 1.92 | inactive |
| TRMT61A | 1 | 0.718 | 8.02 | 7.31 | inactive |
| TRMT61A | 2 | 0.624 | 7.36 | 5.52 | inactive |
| TRMT61A | 3 | -0.731 | -2.18 | 1.18 | inactive |
| SSBP2 | 1 | -0.381 | 0.289 | 6.29 | inactive |
| SSBP2 | 2 | -0.508 | -0.608 | 3.99 | inactive |
| SSBP2 | 3 | -0.201 | 1.55 | 4.5 | inactive |
| MRAS | 1 | 0.0412 | 3.26 | 7.68 | inactive |
| MRAS | 2 | -0.101 | 2.26 | 4.91 | inactive |
| MRAS | 3 | -1.24 | -5.78 | 1.89 | inactive |
| LOC729275 (retired record) | 1 | 0.273 | 4.89 | 5.01 | inactive |
| LOC729275 (retired record) | 2 | 0.462 | 6.22 | 6.31 | inactive |
| LOC729275 (retired record) | 3 | -0.214 | 1.46 | 3.79 | inactive |
| GCNT1 | 1 | 1.23 | 11.6 | 9.46 | inactive |
| GCNT1 | 2 | 2.69 | 21.9 | 13.6 | inactive |
| GCNT1 | 3 | 0.696 | 7.86 | 6.46 | inactive |
| GUCY1B1 | 1 | 0.0757 | 3.5 | 6.32 | inactive |
| GUCY1B1 | 2 | -1.43 | -7.11 | 2.98 | inactive |
| GUCY1B1 | 3 | -1.15 | -5.11 | 2.33 | inactive |
| E4F1 | 1 | -0.19 | 1.63 | 4.11 | inactive |
| E4F1 | 2 | 0.764 | 8.34 | 8.75 | inactive |
| E4F1 | 3 | 0.667 | 7.66 | 5.89 | inactive |
| KLRG2 | 1 | -0.672 | -1.76 | 3.48 | inactive |
| KLRG2 | 2 | -1.33 | -6.41 | 1.79 | inactive |
| KLRG2 | 3 | -0.0659 | 2.5 | 4.35 | inactive |
| TRPC7 | 1 | 4.72 | 36.2 | 18.4 | inactive |
| TRPC7 | 2 | -0.346 | 0.535 | 4.96 | inactive |
| TRPC7 | 3 | -0.739 | -2.23 | 3.5 | inactive |
| PRELID1 | 1 | 0.733 | 8.12 | 6.12 | inactive |
| PRELID1 | 2 | -0.198 | 1.57 | 3.64 | inactive |
| PRELID1 | 3 | -0.776 | -2.49 | 3.32 | inactive |
| GGA3 | 1 | 1.83 | 15.8 | 12.7 | inactive |
| GGA3 | 2 | -0.486 | -0.453 | 4 | inactive |
| GGA3 | 3 | 1.11 | 10.8 | 7.56 | inactive |
| ADAM2 | 1 | -0.475 | -0.373 | 5.43 | inactive |
| ADAM2 | 2 | -0.348 | 0.521 | 5.09 | inactive |
| ADAM2 | 3 | 0.388 | 5.7 | 6.03 | inactive |
| PPP1R14C | 1 | 1.3 | 12.1 | 8.73 | inactive |
| PPP1R14C | 2 | -1.11 | -4.87 | 2.83 | inactive |
| PPP1R14C | 3 | 0.664 | 7.64 | 5.8 | inactive |
| PILRB | 1 | -0.0366 | 2.71 | 3.75 | inactive |
| PILRB | 2 | -0.277 | 1.02 | 6.37 | inactive |
| PILRB | 3 | 0.427 | 5.97 | 5.51 | inactive |
| KCNH5 | 1 | -0.0172 | 2.85 | 6.32 | inactive |
| KCNH5 | 2 | -0.386 | 0.252 | 4.87 | inactive |
| KCNH5 | 3 | 0.144 | 3.98 | 5.93 | inactive |
| FKBP9P1 | 1 | 0.479 | 6.34 | 7.43 | inactive |
| FKBP9P1 | 2 | -0.269 | 1.07 | 6.37 | inactive |
| FKBP9P1 | 3 | 0.851 | 8.96 | 7.55 | inactive |
